The record followed here is paper PMC7884776.

Amino acid sequences for entries named in this document (tags omitted). A change or cut given only in a name is not applied to a line headed by its entry.
UniProt Q8I2B4: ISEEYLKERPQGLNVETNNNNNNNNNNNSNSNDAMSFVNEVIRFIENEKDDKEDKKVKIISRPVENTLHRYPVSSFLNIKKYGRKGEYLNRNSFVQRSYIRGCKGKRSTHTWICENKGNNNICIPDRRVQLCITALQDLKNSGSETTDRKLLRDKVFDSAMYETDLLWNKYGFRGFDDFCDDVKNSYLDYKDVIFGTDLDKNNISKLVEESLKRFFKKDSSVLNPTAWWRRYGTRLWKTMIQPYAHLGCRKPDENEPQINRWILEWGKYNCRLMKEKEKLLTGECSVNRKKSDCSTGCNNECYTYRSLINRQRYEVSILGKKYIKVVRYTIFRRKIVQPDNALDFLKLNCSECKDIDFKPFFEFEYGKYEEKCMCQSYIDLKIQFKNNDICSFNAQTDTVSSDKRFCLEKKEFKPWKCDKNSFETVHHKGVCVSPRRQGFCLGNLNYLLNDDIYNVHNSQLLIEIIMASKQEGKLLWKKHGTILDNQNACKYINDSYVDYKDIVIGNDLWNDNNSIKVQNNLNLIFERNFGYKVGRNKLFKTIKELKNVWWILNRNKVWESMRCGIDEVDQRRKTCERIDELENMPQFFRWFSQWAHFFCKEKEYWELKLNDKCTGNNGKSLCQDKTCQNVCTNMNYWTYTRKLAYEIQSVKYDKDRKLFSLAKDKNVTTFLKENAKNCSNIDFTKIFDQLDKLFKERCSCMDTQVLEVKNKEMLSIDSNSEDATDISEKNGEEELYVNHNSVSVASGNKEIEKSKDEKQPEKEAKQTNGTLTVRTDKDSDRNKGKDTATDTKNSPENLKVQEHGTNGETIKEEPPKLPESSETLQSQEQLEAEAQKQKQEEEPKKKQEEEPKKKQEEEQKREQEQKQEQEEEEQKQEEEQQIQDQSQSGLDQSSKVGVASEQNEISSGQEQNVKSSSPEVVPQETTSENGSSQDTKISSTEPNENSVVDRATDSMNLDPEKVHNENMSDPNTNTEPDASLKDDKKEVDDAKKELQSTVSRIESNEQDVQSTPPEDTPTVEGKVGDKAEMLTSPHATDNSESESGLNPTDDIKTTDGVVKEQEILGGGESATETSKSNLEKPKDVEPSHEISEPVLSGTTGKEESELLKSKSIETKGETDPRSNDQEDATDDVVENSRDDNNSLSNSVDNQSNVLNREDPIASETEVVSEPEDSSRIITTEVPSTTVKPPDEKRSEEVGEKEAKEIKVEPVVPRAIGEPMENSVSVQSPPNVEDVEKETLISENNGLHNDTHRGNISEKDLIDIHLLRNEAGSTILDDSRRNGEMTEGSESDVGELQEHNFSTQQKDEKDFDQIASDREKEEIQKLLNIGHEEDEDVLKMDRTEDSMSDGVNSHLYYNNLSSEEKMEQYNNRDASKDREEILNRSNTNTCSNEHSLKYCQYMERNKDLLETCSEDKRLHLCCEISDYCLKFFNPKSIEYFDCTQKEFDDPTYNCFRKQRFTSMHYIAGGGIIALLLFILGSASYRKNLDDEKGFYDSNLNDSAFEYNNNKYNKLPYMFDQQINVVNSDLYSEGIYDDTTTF
UniProt Q8IHZ9: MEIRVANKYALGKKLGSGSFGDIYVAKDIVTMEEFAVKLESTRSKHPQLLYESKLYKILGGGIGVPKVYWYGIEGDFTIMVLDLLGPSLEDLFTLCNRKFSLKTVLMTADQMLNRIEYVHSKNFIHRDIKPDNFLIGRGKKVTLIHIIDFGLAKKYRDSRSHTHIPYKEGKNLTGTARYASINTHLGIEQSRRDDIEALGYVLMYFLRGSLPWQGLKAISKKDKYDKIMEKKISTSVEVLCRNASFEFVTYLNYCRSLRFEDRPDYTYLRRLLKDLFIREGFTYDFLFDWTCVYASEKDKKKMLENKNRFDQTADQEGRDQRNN
UniProt Q7KQL3: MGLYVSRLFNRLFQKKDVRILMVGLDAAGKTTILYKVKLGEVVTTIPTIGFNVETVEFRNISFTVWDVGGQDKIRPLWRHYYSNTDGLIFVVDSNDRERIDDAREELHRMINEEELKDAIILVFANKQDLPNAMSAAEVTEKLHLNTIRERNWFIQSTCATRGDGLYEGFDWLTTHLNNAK
UniProt Q9BHN1: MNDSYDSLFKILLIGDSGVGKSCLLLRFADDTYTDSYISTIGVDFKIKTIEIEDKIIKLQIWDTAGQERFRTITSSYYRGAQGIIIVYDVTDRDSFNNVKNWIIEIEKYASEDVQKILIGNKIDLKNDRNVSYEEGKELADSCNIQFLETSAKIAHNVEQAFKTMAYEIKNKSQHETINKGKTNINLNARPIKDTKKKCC
UniProt Q8IL42: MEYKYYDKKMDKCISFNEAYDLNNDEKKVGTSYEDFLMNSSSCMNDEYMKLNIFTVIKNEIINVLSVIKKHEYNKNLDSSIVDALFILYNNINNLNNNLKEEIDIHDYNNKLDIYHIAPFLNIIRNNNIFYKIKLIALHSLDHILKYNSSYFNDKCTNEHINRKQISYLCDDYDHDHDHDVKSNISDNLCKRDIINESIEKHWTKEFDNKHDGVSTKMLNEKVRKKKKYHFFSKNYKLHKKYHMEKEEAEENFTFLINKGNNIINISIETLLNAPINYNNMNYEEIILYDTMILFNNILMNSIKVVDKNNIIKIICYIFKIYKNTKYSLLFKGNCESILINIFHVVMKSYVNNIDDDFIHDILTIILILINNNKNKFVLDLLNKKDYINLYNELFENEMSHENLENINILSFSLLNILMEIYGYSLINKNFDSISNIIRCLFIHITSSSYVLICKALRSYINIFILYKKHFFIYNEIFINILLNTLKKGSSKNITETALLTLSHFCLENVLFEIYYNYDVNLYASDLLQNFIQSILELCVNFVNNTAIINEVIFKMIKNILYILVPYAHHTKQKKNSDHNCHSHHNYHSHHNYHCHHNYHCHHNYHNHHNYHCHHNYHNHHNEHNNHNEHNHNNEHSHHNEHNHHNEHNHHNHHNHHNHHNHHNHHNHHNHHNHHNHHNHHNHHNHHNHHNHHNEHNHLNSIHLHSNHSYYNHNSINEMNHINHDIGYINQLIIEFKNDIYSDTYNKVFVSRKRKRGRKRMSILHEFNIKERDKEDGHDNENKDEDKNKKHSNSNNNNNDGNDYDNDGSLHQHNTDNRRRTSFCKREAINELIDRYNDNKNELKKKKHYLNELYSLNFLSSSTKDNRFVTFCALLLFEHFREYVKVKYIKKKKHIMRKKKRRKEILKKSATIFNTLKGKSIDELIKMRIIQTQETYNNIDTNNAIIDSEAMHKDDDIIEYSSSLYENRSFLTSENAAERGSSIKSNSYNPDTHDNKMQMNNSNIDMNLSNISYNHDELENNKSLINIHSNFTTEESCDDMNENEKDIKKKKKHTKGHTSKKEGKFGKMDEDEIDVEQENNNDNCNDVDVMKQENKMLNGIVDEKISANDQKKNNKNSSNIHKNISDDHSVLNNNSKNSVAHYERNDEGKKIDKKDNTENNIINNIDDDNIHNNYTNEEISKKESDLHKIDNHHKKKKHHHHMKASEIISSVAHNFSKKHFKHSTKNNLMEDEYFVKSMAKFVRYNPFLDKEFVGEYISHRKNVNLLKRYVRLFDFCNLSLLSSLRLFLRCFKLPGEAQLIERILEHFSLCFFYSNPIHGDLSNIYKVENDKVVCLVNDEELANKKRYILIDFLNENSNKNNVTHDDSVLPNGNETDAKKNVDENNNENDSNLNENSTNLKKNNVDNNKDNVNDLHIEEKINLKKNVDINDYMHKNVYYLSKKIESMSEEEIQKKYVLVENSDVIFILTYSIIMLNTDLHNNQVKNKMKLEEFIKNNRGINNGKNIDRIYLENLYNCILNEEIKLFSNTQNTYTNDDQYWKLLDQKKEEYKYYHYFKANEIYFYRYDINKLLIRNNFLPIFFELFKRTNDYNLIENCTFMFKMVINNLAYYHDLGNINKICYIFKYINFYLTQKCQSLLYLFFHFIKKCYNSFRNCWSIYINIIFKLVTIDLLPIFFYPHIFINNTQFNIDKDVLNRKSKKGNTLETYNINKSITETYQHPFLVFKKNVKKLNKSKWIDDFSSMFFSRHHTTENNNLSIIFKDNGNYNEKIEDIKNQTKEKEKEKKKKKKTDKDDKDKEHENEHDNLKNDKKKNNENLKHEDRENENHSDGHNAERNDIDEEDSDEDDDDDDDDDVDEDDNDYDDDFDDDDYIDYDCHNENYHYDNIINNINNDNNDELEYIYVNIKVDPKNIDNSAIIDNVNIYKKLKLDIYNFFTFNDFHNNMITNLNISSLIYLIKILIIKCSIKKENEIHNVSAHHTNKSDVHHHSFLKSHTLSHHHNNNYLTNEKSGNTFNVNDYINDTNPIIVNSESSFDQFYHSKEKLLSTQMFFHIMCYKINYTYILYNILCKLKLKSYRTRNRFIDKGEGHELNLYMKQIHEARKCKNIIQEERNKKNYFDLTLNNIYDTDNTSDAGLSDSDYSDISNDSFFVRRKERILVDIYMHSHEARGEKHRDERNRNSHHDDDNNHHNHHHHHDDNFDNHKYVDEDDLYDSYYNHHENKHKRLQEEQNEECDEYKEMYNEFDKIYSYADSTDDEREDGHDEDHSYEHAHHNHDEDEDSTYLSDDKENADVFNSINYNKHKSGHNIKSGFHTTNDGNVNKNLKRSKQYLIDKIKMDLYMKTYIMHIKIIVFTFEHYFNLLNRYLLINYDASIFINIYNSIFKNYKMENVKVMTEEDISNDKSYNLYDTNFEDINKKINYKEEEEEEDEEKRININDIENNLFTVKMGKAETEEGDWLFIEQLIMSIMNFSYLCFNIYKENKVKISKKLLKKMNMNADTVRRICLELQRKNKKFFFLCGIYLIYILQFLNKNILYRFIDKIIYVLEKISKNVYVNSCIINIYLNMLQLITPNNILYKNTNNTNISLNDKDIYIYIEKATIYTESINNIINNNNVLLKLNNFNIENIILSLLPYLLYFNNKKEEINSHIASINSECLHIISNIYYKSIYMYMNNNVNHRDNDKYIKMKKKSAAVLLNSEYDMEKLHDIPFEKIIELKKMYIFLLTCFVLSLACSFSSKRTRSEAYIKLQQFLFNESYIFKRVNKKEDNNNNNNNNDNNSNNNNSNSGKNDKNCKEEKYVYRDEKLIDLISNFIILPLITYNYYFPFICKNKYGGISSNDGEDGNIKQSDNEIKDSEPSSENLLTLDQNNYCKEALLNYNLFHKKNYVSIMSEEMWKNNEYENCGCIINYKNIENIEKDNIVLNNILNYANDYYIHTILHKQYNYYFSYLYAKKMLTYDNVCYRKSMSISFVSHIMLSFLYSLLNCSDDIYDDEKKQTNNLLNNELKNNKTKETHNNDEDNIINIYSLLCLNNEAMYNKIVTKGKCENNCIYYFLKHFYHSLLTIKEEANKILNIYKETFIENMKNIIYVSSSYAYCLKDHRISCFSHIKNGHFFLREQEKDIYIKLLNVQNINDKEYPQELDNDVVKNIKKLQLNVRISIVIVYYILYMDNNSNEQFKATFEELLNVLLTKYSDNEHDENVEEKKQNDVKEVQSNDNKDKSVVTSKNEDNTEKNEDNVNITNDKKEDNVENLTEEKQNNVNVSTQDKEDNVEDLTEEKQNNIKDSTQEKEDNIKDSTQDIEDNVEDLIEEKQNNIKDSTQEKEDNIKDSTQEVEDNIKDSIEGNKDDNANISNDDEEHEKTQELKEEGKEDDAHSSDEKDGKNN

In the assay the target is T1, PfRab5b-YFP-FLAG (Plasmodium falciparum) (UniProt Q76NM7).
T1 sequence: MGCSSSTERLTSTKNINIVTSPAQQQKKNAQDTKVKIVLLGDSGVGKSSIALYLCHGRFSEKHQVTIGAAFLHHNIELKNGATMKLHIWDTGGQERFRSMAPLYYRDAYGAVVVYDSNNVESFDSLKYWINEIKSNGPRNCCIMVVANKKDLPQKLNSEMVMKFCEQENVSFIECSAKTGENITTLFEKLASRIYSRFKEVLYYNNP
Description: affinity purification with mass spectrometry; saponin-permeabilised infected RBCs crosslinked with 0.5 mM DSP, solubilised in 1.0% Triton X-100 in PBS; anti-FLAG M2 agarose at 4°C for 3.5 h, eluted with FLAG peptide; SDS-PAGE, LC-ToF MS/MS; PfRab5b-YFP as control, >3.5 fold enrichment.

No constants are given. Whether binding was seen depends on the method and setting. Binding seen in cells or lysates may run through a third protein. Here binding means that the protein was enriched with, or labelled near, the bait; the list need not be complete. A no says only that the protein was not detected with the bait. Sequences can lack the tags named with a protein.

“erythrocyte binding antigen-181 (EBA181) (from UniProt Q8I2B4)”: the binding result was “binds”.

“casein kinase CK1 (from UniProt Q8IHZ9 1-324)”: the binding result is on record as “no binding”.

Consider “ADP-ribosylation factor (PfArf GTPase), PfArf1 (from UniProt Q7KQL3 1-181)”, for which the binding entry is “binds”.

For the molecule “early transcribed membrane protein 10.2 (ETRAMP10.2) (from UniProt Q8IJ76)”, the binding entry is given as “binds”.

As to “PfRab1b GTPase (from UniProt Q9BHN1 1-200)”, the binding result is listed as “binds”.

For the molecule “protein transport protein SEC7 (PfSec7) (from UniProt Q8IL42)”, the binding result is reported as “binds”.

B1: PVM protein S16 (Pfs16) (protein, UniProt Q6ZMA7 26-157)
chain: DANDKAKKPAGKGSPSTLQTPGSSSGASLHAVGPNQGGLSQGLSGKDSADKMPLETQLAIEEIKSLSNMLDKKTTVNRNLIISTAVTNMIMLIILSGIVGFKVKKTKNADDDKGDKDKDKDNTDEGDEGDDS
With B1, the binding entry is “binds”.
